These are yes or no findings as the source states them, for the method shown. Binding seen in cells or lysates may run through a third protein. Some binding calls cover weakened binding; strength is not graded here.

By UniProt entry, the sequences of proteins in these tests, tags left out. Residues count along the entry.
UniProt P43220, residues 24-463: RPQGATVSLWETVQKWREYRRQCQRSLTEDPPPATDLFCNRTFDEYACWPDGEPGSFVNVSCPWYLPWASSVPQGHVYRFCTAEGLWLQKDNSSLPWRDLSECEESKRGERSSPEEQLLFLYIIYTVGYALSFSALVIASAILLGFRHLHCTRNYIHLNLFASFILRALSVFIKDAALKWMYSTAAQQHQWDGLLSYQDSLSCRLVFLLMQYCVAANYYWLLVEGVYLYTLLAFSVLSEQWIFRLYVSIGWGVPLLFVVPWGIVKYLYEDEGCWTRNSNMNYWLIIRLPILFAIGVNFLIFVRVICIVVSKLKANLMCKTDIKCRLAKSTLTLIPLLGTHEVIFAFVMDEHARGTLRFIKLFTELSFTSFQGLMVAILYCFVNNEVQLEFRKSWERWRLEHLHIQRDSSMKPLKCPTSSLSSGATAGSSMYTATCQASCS

The target of this assay is hGlp1r^WT-SmBiT (human) (UniProt P43220). The assay can be described thus: split reporter.

For “LgBiT-β-arrestin 2 (from UniProt P32121 1-409)”, the binding entry is reported as “binds”.
